Laboratory results reported in patent US20190008828A1, “METHODS FOR INHIBITING HUMAN IMMUNODEFICIENCY VIRUS (HIV) RELEASE FROM INFECTED CELLS” (priority 2015, published 2019).
At least one structure is not confirmed: it was looked up by name or label, or the drawing left a doubt.

Key:
[1] = system: SF33-pseudotyped HIV-1 (X4-tropic); format: cell-based
[2] = system: VSV; format: cell-based; details: 10 μM
[3] = system: CD62L shedding; experiment: CD62L shedding on activated CD8-depleted PBMCs; format: cell-based, human; details: 100 μM; day 6 p.i.; surface CD62L; listed as BB94
[4] = system: JRFL-pseudotyped HIV-1 (R5-tropic); format: cell-based

SMILES: CNC(=O)[C@H](Cc1ccccc1)NC(=O)[C@H](CC(C)C)[C@H](CSc1cccs1)C(=O)NO [BB-94, Batimastat]
- infection with SF33-pseudotyped HIV-1, luciferase activity [1]: did not have a significant effect
- VSV infection of 293T or Vero cells [2]: did not affect
- CD62L shedding from infected (p24+) compared to p24− cells [3]: inhibited CD62L shedding
- infection with JRFL-pseudotyped HIV-1, luciferase activity [4]: did not have a significant effect
